Test results from PubChem BioAssay AID1487 (National Center for Advancing Translational Sciences (NCATS), 2009).
Several values for one entry are separate records, joined by “and”; a condition that tells them apart may be missing. Equal values may be shown once. The list shows a part of the results. Further columns of the screen follow, without active or inactive calls. Most of these compounds were active or inconclusive in the main read-out, so they are no random draw. Potencies come from curve fits of mixed quality, noted in brackets.

Test: qHTS Assay for Modulators of Lamin A Splicing
Settings: HeLa LMNA splicing GFP/RFP minigene ratio, 48 h
Summary of the method: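 S3 HeLa stable clones carrying a lamin A-EGFP splicing minigene plus DsRed2 were seeded at 600 cells/well in Opti-MEM with 2% FBS, pin-dosed and incubated 48 h at 37°C. Acumen cytometry (488 nm) gave the GFP/RFP total-intensity ratio.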

[1] = measured here: RFP viability control channel
[2] = measured here: GFP splicing reporter channel

Structure (SMILES) | AC50 [1] | AC50 [2]
NS(=O)(=O)c1ccc(NC(=O)COC(=O)CCc2ccc(S(=O)(=O)N3CCOCC3)cc2)cc1 | 0.0316 µM [falling, full curve] | 
COc1ccc(C(C)N2CC34C=CC(O3)C(C(=O)OCC(C)C)C4C2=O)cc1 (stereo not drawn) | 0.0891 µM [falling, full curve, poor fit] | 
Nc1nn(-c2ccccc2)c(N)c1N=Nc1ccccc1F | 31.6 µM [rising, single point] | 12.6 µM [rising, single point]
CCCCn1nnc(N(C(=O)c2cccs2)C(=O)c2cccs2)n1 | 25.1 µM [falling, single point] | 
c1csc(CNc2ncnc3ccc(-c4ccc5c(c4)OCO5)cc23)c1 | 14.1 µM [falling, single point] | 
CCCc1nc2ccccc2c(C(=O)OCC(=O)N2CCc3ccccc32)c1CC | 22.4 µM [rising, single point] | 35.5 µM [rising, single point]
CCOc1ccc(-n2c(C)cc(C(=O)CCl)c2C)cc1 | 22.4 µM [falling, single point] | 
Cc1nnc(N/N=C/c2cccc(OCc3ccc(Cl)c(Cl)c3)c2)n1N | 25.1 µM [rising, single point] | 15.8 µM [rising, single point]
Cc1cc(C(=O)N/N=C/c2cc(Br)ccc2OC(=O)c2ccccc2)n[nH]1 | 3.98 µM [rising, full curve] | 
Nn1c(Cc2cccc3ccccc23)nnc1SCc1c(Cl)cccc1Cl | 11.2 µM [rising, partial curve] | 
N#Cc1cc(Oc2cccc3cccnc23)c(-n2nnc3ccccc32)cc1C#N | 17.8 µM [falling, partial curve] | 
CCn1c2ccccc2c2cc(C3C(C#N)=C(N)Oc4n[nH]c(COC)c43)ccc21 (stereo not drawn) |  | 35.5 µM [falling, single point]
COCCNC(=S)N1CCc2cc(OC)c(OC)cc2C1COc1cc(C)cc(C)c1 (stereo not drawn) | 12.6 µM [rising, partial curve] | 
Cc1sc2nc3ccc(NCc4ccco4)nn3c(=O)c2c1C |  | 17.8 µM [rising, single point]
CCCOc1ccc(N2C(=O)CC(N(CCc3ccc(OC)c(OC)c3)C(=S)Nc3ccccc3)C2=O)cc1 (stereo not drawn) | 3.55 µM [rising, full curve] | 
CN1CC(c2ccccc2)C2(SC(=S)N(Cc3ccco3)C2=O)C12C(=O)Nc1ccccc12 (stereo not drawn) | 15.8 µM [rising, single point] | 
COC(=O)c1ccc(CN2C(=O)C3CCCCC3C2=O)o1 (stereo not drawn) | 10 µM [falling, partial curve] | 
Cc1ccc(C(=O)CSc2nnc(-c3ccccc3N)n2C)cc1 | 7.94 µM [rising, partial curve, poor fit] | 0.891 µM [rising, partial curve, poor fit]
CC1Cc2ccccc2N1C(=O)CSc1nc2ccccc2s1 (stereo not drawn) | 25.1 µM [rising, single point] | 
Cc1ccc2c(c1)[nH]c1c(N3CCN(Cc4ccccc4)CC3)ncnc12 |  | 7.08 µM [rising, full curve, poor fit]
CCn1c(=O)n(CC)c2cc(S(=O)(=O)N3CCCCC3)c(C)cc21 | 12.6 µM [rising, single point] | 
COC(=O)CNC(=O)Nc1cc(C(=O)NCc2ccc(C)cc2)ccc1N1CCCC1 | 0.01 µM [falling, full curve, poor fit] | 0.0112 µM [falling, full curve, poor fit]
CN(C)c1ccc(/C=C/c2ccc3c4ccccc4ccc3[n+]2-c2ccccc2)cc1 | 5.01 µM [rising, single point] | 
c1coc(CNc2nc(N3CCCCC3)nc3ccccc23)c1 | 22.4 µM [rising, single point] | 
Cc1ccc(-n2c(O)c(/C=N/n3cnnc3)c3ccccc3c2=O)cc1 | 35.5 µM [falling, single point] | 35.5 µM [falling, single point]
O=C(Nc1ccc(F)cc1F)c1ccc(CN2CC(=O)N3CCCCC3C2=O)cc1 (stereo not drawn) | 0.0141 µM [falling, full curve, poor fit] | 
COc1ccc(OC)c(/C=C/C(=O)OCC(=O)Nc2ccc3c(c2)OCCO3)c1 | 22.4 µM [rising, partial curve, poor fit] | 

Structure (SMILES) | AC50 [1] | AC50 [2]
CN(c1cccc(NC(=O)CN(c2ccc(C34CC5CC(CC(C5)C3)C4)cc2)S(C)(=O)=O)c1)S(C)(=O)=O | 31.6 µM [falling, single point] | 17.8 µM [falling, single point]
CC(C)(C)c1cc(C(C)(C)C)c2oc(=O)c(-c3nc4ccccc4[nH]3)cc2c1 | 2.82 µM [falling, partial curve] | 3.16 µM [falling, single point]
O=C(CSc1nc2ccccc2c2nc(-c3ccccc3)nn12)Nc1ccc(Br)cc1 | 0.00708 µM [falling, full curve, poor fit] | 0.00447 µM [falling, full curve, poor fit]
COc1cc(C(=O)NNC(=S)NC(=O)c2ccccc2C)cc(OC)c1OC | 14.1 µM [rising, single point] | 10 µM [rising, partial curve, poor fit]
C/C(NC(=O)c1ccccc1)=C1/C(=O)CC2C1C2(C)C (stereo not drawn) | 5.62 µM [rising, full curve] | 11.2 µM [rising, partial curve]
COc1ccccc1-c1nnc(SCC(=O)Nc2c(Cl)cccc2Cl)o1 | 35.5 µM [rising, single point] | 
Cc1cc(C(=O)CSc2nc(N)cc(N)n2)c(C)n1CCc1ccc(F)cc1 | 15.8 µM [rising, partial curve] | 
Cc1c(CCO)c(=O)[nH]n1C(=O)c1c(F)cccc1F | 20 µM [rising, single point] | 
CC1Cc2nc(SCC(=O)N3CCN(c4ccccc4)CC3)n(C)c(=O)c2S1 (stereo not drawn) | 3.16 µM [rising, single point] | 5.62 µM [rising, single point]
COc1cc2c3c(c1)C1(C(=O)N3C(C)(C)C=C2C)C(C#N)=C(N)Oc2cc(C)oc(=O)c21 (stereo not drawn) | 0.0224 µM [falling, full curve, poor fit] | 10 µM [falling, partial curve]
COn1c(SC2CCCCC2)nc2ccccc2c1=O | 22.4 µM [rising, single point] | 
Cc1nn(-c2ccccc2)c(Cl)c1C(=O)Nc1nnc(C2CCCCC2)s1 |  | 0.708 µM [falling, full curve, poor fit]
COC(=O)c1c(NC(=O)COC(=O)CNC(=O)c2ccco2)sc(C)c1C | 0.158 µM [falling, full curve, poor fit] | 
CCOC(=O)C1=C(N)OC2=C(C(=O)CCC2)C1c1ccco1 (stereo not drawn) | 2.82 µM [rising, partial curve] | 
COc1ccc(CN2CCCC(C(=O)c3cccc(OC(C)C)c3)C2)cc1Cn1cccn1 (stereo not drawn) | 35.5 µM [falling, single point] | 15.8 µM [falling, single point]
COc1ccc(-c2[nH]ncc2CN2CCC(N3CCSCC3)CC2)c(F)c1 |  | 35.5 µM [falling, partial curve, poor fit]
CCCCC(=O)Nc1ccc2c3c(cccc13)C(=O)N2CC |  | 17.8 µM [falling, single point]
CC(C)c1ccc(S(=O)(=O)Nc2ccc(SC(F)F)cc2)cc1 | 31.6 µM [rising, single point] | 15.8 µM [rising, single point]
Cc1ccc(C)c(NC(=O)Cn2nc(C)c3nn(-c4ccc(Cl)cc4)c(C)c3c2=O)c1 | 10 µM [falling, single point] | 
CCOc1ccc(C(=O)Nc2cc(NC(=O)c3ccc(OCC)c(Cl)c3)cc(C(=O)O)c2)cc1Cl | 0.02 µM [falling, full curve] | 0.0501 µM [falling, full curve, poor fit]
COc1ccc(NC(=O)CSc2ncc(-c3ccc(F)cc3)n2Cc2ccco2)cc1 | 22.4 µM [rising, single point] | 
CC(C)(C)C(=O)C(Oc1ccc(Cl)cc1)n1ccnc1 (stereo not drawn) | 35.5 µM [rising, single point] | 7.08 µM [falling, full curve, poor fit]
CCNc1nc(NCC)n2c(SCC(=O)c3ccccc3F)nnc2n1 | 11.2 µM [rising, partial curve] | 
CC(=O)N1CCCc2cc(S(=O)(=O)N3CCN(c4ccccc4F)CC3)ccc21 |  | 20 µM [rising, partial curve, poor fit]
COc1ccc(/C=C2\CN(Cc3ccccc3)C/C(=C\c3ccc(OC)cc3)C2=O)cc1 | 35.5 µM [falling, single point] | 35.5 µM [falling, single point]
NC(=NCCCCCCN=C(N)/N=C(\N)Nc1ccc(Cl)cc1)/N=C(\N)Nc1ccc(Cl)cc1 | 1.78 µM [falling, full curve] and 35.5 nM [rising, full curve, poor fit] | 3.16 µM [falling, single point] and 31.6 nM [rising, full curve, poor fit]
O=C(CN1CCN(Cc2ccccc2)CC1)Nc1ccc([N+](=O)[O-])cc1C(=O)Nc1ccccc1F | 22.4 µM [rising, single point] | 
